Assay results reported in the supplement of paper PMC10470496.
Structures can show the parent of a compound that is named as a salt. The list shows a part of the results. Many values rest on one well or one pass, so single values are uncertain.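 The strains were three CDC resistance-bank clinical C. auris isolates from clades III, IV and I, cultured in RPMI-1640 at 35°C. Growth was background-corrected OD600 versus vehicle-only wells on the same plate. A hit needed >50% inhibition in two or more strains plus a plate-corrected B-score exceeding 0.1.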

The compounds below were run on C. auris AR-384 (assay: growth relative to vehicle control (OD600 ratio) (fraction); higher = less inhibition). Settings: 1 µM; 24 h.

Row | Compound | growth
1 | Cc1cc(NS(=O)(=O)c2ccc(N)cc2)no1 [Sulfamethoxazole] | 1.04
2 | NCc1ccc(S(N)(=O)=O)cc1 [Mafenide hydrochloride] | 1.23
3 | O=c1[nH]cnc2c1ncn2[C@@H]1O[C@H](CO)[C@@H](O)[C@H]1O [Inosine] | 0.95
4 | Cc1nc(-c2ccc(OCC(C)C)c(C#N)c2)sc1C(=O)O [Febuxostat] | 0.91
5 | CCc1c2c(nc3ccc(OC(=O)N4CCC(N5CCCCC5)CC4)cc13)-c1cc3c(c(=O)n1C2)COC(=O)[C@]3(O)CC [Irinotecan HCl Trihydrate] | 0.92
6 | C[N+](C)(C)CCOC(N)=O [Carbachol] | 1.23
7 | NCCC(O)(P(=O)(O)O)P(=O)(O)O [Pamidronate Disodium] | 0.61
8 | Clc1ccc(COC(Cn2ccnc2)c2ccc(Cl)cc2Cl)c(Cl)c1 (stereo not drawn) [Miconazole] | 0.48
9 | CC(C)(C)c1nc(-c2cccc(NS(=O)(=O)c3c(F)cccc3F)c2F)c(-c2ccnc(N)n2)s1 | 1.1
10 | CCCc1nc(C(C)(C)O)c(C(=O)OCc2oc(=O)oc2C)n1Cc1ccc(-c2ccccc2-c2nnn[nH]2)cc1 [Olmesartan Medoxomil] | 1.03
11 | Cc1ccsc1C(=CCCN1CCC[C@@H](C(=O)O)C1)c1sccc1C [Tiagabine] | 0.79
12 | NS(=O)(=O)c1cc2c(cc1Cl)N=C(CSCc1ccccc1)NS2(=O)=O [Benzthiazide] | 0.97
13 | Cc1nc(C(=O)NCC(=O)O)c(O)c2ccc(Oc3ccccc3)cc12 [Roxadustat (FG-4592)] | 0.99
